In the supplement of paper PMC10849652:
Some of the results follow.

Chains of the proteins cited; added tags and fusions are not shown. Lines headed by an entry give the natural chain unless they say otherwise; changes in a name come on top.
UniProt Q9BPZ7, whole entry, looked up: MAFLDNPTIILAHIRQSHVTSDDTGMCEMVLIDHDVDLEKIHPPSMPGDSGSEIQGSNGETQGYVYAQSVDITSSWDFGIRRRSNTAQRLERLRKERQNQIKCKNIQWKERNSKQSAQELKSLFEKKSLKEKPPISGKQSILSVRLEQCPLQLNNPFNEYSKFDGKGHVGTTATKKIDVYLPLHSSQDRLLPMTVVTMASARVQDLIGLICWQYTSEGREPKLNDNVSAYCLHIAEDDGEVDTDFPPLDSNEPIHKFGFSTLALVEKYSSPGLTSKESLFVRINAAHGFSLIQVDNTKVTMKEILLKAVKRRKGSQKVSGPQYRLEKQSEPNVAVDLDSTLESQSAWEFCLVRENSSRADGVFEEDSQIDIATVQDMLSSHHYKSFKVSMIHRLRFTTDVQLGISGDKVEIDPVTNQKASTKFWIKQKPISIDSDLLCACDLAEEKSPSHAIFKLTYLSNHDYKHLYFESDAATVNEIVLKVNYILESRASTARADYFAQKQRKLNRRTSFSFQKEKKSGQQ
UniProt P12980: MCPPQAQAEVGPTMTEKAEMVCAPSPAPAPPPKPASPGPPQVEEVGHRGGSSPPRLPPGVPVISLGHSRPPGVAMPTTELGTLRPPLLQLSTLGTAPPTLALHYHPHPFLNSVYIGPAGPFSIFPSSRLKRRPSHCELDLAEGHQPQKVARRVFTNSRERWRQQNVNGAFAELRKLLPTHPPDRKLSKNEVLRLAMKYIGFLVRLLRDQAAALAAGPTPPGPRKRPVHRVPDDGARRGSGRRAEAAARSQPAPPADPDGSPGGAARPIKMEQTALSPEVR
UniProt P36941: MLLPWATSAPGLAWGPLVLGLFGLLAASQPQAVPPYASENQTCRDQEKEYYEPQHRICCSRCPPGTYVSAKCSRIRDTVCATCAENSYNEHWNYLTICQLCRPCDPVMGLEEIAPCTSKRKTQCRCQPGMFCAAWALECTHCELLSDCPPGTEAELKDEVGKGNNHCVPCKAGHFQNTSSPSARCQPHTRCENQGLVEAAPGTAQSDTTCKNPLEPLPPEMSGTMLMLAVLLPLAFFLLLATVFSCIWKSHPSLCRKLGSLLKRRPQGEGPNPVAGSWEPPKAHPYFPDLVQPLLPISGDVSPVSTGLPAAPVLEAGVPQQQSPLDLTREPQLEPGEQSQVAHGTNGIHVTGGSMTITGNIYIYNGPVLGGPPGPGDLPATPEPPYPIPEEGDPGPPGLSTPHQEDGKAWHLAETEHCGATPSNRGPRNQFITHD
UniProt Q86UD3: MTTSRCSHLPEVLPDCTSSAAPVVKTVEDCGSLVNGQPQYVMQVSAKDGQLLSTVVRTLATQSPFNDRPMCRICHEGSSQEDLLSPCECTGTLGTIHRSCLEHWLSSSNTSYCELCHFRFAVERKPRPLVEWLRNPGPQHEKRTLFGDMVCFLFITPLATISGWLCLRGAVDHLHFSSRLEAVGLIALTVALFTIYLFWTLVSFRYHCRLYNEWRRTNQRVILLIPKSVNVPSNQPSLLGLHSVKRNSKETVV
UniProt Q13233: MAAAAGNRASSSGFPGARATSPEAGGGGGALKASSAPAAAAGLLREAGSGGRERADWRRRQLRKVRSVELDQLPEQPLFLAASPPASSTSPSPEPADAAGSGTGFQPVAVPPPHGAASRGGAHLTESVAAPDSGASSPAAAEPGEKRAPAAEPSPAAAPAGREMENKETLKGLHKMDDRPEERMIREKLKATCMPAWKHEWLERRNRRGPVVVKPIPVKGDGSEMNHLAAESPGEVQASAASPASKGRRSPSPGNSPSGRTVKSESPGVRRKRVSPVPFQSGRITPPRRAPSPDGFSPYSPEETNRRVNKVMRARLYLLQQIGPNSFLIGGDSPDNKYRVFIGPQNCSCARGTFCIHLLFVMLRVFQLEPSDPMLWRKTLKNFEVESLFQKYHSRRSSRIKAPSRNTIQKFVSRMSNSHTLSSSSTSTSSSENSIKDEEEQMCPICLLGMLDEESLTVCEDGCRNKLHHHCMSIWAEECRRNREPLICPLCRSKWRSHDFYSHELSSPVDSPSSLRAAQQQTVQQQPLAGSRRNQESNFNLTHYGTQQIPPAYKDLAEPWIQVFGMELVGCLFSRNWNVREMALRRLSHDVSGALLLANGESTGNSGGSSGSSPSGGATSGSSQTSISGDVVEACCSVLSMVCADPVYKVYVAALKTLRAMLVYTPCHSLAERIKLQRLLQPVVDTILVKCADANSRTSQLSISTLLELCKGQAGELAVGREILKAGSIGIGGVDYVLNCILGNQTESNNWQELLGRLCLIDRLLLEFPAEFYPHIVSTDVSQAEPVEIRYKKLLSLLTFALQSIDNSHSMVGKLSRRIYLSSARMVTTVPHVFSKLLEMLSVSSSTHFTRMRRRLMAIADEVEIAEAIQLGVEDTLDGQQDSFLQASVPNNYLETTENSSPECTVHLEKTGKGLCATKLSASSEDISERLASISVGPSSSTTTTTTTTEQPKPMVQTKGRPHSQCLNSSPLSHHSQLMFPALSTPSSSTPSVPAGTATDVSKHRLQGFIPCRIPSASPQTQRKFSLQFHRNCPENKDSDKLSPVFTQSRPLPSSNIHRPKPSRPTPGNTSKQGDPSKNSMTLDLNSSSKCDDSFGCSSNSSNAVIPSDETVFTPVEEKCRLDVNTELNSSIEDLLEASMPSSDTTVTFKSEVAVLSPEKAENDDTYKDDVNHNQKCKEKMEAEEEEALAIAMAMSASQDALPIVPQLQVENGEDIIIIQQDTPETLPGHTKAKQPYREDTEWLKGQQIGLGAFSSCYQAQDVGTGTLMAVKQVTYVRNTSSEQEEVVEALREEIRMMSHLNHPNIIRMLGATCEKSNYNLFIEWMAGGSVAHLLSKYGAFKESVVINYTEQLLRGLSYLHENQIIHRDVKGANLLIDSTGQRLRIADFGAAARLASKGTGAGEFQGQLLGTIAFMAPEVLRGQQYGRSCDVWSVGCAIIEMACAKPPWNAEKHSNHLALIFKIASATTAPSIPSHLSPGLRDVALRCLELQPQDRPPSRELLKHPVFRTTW
UniProt P10636, whole entry, looked up: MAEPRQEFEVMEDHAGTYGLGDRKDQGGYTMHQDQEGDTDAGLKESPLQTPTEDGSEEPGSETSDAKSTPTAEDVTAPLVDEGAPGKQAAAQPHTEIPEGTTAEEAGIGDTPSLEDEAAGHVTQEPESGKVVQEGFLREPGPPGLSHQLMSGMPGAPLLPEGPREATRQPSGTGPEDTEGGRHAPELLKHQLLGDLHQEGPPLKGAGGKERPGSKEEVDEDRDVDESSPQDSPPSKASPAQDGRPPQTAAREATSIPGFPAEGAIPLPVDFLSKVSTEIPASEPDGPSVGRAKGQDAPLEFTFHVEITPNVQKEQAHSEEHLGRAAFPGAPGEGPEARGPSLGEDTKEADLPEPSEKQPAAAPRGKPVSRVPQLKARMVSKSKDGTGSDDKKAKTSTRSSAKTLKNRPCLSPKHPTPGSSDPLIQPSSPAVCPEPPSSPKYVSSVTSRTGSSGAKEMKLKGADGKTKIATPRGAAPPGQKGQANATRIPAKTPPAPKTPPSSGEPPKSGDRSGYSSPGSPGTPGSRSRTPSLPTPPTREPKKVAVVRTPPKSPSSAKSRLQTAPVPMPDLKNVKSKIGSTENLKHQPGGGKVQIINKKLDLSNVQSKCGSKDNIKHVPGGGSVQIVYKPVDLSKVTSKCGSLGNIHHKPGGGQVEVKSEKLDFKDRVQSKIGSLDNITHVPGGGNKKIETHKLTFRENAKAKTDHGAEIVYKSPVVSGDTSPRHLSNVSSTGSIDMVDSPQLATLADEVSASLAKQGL
UniProt Q99759: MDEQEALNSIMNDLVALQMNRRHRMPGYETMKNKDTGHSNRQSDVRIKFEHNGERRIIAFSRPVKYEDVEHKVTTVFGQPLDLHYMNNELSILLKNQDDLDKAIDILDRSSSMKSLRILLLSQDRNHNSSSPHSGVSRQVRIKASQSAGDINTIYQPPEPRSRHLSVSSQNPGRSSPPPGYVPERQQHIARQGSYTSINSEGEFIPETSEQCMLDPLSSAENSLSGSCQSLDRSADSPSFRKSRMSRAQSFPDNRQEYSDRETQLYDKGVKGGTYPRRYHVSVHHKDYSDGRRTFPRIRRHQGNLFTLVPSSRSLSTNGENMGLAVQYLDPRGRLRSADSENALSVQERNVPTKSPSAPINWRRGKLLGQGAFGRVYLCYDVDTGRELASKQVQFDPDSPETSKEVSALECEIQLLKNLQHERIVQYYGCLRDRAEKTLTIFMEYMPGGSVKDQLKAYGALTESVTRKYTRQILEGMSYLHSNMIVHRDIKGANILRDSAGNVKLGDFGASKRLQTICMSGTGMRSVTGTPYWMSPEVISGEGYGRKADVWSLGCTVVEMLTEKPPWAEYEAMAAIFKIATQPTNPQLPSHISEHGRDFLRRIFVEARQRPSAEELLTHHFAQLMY
UniProt Q9HAY2: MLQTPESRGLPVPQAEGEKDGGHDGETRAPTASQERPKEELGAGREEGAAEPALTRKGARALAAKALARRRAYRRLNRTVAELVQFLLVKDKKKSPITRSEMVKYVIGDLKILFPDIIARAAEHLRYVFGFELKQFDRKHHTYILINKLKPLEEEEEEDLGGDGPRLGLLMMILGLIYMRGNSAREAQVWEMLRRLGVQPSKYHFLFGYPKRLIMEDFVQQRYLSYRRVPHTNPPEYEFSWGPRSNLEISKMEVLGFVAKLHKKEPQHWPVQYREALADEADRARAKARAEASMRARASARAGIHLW
UniProt Q16553: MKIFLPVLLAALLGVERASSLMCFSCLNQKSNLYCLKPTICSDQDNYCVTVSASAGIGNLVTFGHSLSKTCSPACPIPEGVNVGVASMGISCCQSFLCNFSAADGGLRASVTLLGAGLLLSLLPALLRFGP
UniProt O15525: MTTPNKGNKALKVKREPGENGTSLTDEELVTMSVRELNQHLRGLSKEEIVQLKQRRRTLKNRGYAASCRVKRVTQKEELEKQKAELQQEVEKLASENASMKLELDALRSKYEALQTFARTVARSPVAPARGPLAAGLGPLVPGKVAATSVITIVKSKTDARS
UniProt Q9ULX9: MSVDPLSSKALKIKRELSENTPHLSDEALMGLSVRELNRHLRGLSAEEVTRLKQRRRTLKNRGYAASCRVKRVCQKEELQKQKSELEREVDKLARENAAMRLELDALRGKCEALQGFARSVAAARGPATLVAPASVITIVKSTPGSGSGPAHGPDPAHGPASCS
UniProt Q9Y2U5: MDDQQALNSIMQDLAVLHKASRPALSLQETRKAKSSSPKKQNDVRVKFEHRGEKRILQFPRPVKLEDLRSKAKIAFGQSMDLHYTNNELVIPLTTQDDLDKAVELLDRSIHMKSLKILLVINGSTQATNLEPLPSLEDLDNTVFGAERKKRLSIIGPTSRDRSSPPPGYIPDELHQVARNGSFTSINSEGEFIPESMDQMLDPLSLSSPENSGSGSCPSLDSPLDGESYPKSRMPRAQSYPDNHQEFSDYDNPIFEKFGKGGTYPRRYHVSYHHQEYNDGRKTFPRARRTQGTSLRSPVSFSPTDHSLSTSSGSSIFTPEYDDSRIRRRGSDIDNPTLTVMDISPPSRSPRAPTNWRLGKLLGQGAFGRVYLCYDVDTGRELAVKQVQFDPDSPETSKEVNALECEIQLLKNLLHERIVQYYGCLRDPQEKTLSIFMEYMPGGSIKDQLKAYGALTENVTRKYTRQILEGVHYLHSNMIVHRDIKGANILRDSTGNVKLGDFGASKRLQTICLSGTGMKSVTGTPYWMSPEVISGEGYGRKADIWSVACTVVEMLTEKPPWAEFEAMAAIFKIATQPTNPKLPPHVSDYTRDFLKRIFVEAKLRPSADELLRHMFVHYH
UniProt P43357, whole entry, looked up: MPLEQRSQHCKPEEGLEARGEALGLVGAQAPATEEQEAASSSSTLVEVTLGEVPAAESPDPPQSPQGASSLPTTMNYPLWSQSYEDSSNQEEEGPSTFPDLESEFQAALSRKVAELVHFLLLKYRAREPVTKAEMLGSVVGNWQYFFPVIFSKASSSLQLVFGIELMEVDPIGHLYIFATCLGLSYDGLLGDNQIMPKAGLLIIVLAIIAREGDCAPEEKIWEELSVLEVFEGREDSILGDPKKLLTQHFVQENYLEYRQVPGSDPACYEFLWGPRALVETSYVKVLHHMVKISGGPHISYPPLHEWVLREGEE
UniProt P43365, whole entry, looked up: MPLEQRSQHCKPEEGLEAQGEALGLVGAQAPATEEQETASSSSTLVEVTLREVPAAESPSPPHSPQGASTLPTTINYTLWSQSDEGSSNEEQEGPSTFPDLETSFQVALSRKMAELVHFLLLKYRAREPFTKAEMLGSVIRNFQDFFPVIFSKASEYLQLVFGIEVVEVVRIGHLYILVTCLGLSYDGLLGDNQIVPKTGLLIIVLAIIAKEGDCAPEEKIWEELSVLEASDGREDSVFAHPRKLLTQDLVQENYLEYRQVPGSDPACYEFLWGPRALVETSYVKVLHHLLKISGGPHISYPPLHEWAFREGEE
UniProt Q9BSK0: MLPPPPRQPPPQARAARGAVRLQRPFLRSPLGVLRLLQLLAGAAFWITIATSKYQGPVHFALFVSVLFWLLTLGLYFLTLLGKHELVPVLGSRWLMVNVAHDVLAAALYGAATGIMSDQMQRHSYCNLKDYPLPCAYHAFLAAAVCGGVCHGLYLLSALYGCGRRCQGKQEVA

Columns and labels:
Experiment in all cases: log2 fold change, soluble protein after heating vs DMSO (PISA); higher = thermal stabilisation; K562 lysate, 10 uM; active = over 0.2 and 3.5 SD of the protein, either way, in both replicates (recomputed)
[1] = compound: C/C(=N\NC(=O)C1=CC(=CC=C1)S(=O)(=O)N2CCOCC2)/C3=C(C=CC(=C3)Cl)O
Summary of the method: (§1)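 To prepare the extract, K562 pellets were dounce-homogenised in PBS pH 7.4 with 1 mM MgCl2, giving crude material at 1 mg/mL protein. This was treated with 10 μM compound for 30 min, then heated in aliquots for 3 min over 48°C-58°C before pooling and addition of NP-40 to 0.5% at 4°C. Centrifugation at 21,000xg for 90 min left soluble protein in the supernatant, which TMTpro 16plex LC-MS/MS quantified with equalised channel sums. Results are log-two fold changes in thermal stability compared with solvent controls, from duplicates.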

[2] = compound: C1=CC2=C(C=CC(=C2)/C=C\3/C(=O)NC(=NCC4=CC=CS4)S3)N=C1
Summary of the method: as §1

[3] = compound: C1=CC=C(C=C1)C2=NC(=C(N2)C3=CC=NC=C3)C4=CC(=C(C=C4)Cl)O
Summary of the method: as §1

[4] = compound: C1=CC=C2C(=C1)C3=NNC4=CC=CC(=C43)C2=O
Summary of the method: as §1

[5] = compound: C1CCN(C1)C(=O)NC2=CC=CC(=C2)NC3=NC=C(C(=N3)NCCC4=CN=CN4)Br
Summary of the method: as §1

[6] = compound: C1CN(CCC1(CC2=CC=C(C=C2)Cl)N)C3=NC=NC4=C3C=CN4
Summary of the method: as §1

IRAK-1-4 Inhibitor I = compound: C1COCCN1CCN2C3=CC=CC=C3N=C2NC(=O)C4=CC(=CC=C4)[N+](=O)[O-] [IRAK-1-4 Inhibitor I]
Summary of the method: as §1

[7] = compound: C1=CC2=NC=CN=C2C=C1/C=C/3\C(=O)NC(=O)S3
Summary of the method: as §1

erlotinib = compound: C#Cc1cccc(Nc2ncnc3cc(OCCOC)c(OCCOC)cc23)c1 [erlotinib]
Summary of the method: as §1

[8] = compound: C1=CC(=CC=C1C2=NC3=C(N2)C=C(C=C3)C(=O)N)OC4=CC=C(C=C4)Cl
Summary of the method: as §1

Measured: log2 fold change

LYPLA1, A0A087X1K9
inactive: [1] -0.005 | [2] -0.388 | [3] -0.097 | [4] -0.061 | [5] -0.155 | [6] -0.023 | IRAK-1-4 Inhibitor I 0.089

MACF1 (UniProt E9PLY5)
inactive: [7] -0.054

MAPKAP1 (UniProt Q9BPZ7)
inactive: erlotinib -0.091 | [8] -0.059 | [3] 0.062 | [5] 0.141 | [6] -0.181 | IRAK-1-4 Inhibitor I -0.19

LYL1 (UniProt P12980)
inactive: erlotinib 0.043 | [8] -0.097 | [7] -0.007

LYN isoform 2 (UniProt P07948)
inactive: erlotinib -0.161 | [8] -0.093 | [3] 0.132 | [5] -0.035 | [6] -0.385 | IRAK-1-4 Inhibitor I 0.493

LTBR (UniProt P36941)
inactive: erlotinib -0.05 | [8] 0.105 | [7] 0.26

MAGEA6 (UniProt P43360)
inactive: erlotinib 0.07 | [1] 0.023 | [8] 0.175 | [2] 0.101 | [4] 0.053 | [5] -0.143 | [6] -0.089

MARCHF3 (UniProt Q86UD3)
inactive: [1] 0.009 | [2] -0.07 | [4] 0.011 | [5] 0.04 | [6] 0.022

LZTS2 (UniProt Q9BRK4)
inactive: erlotinib 0.055 | [1] -0.019 | [8] -0.013 | [2] -0.058 | [7] 0.024 | [4] -0.104 | [5] -0.267 | [6] -0.064

MAP3K1 (UniProt Q13233)
inactive: [1] 0.182 | [2] -0.02 | [3] 0.185 | [4] -0.01 | [5] -0.142 | [6] 0.1 | IRAK-1-4 Inhibitor I -0.008

7 consecutive records from above, quoted:
LYPLA1, A0A087X1K9
inactive: [1] -0.005 | [2] -0.388 | [3] -0.097 | [4] -0.061 | [5] -0.155 | [6] -0.023 | IRAK-1-4 Inhibitor I 0.089

MACF1 (UniProt E9PLY5)
inactive: [7] -0.054

MAPKAP1 (UniProt Q9BPZ7)
inactive: erlotinib -0.091 | [8] -0.059 | [3] 0.062 | [5] 0.141 | [6] -0.181 | IRAK-1-4 Inhibitor I -0.19

LYL1 (UniProt P12980)
inactive: erlotinib 0.043 | [8] -0.097 | [7] -0.007

LYN isoform 2 (UniProt P07948)
inactive: erlotinib -0.161 | [8] -0.093 | [3] 0.132 | [5] -0.035 | [6] -0.385 | IRAK-1-4 Inhibitor I 0.493

LTBR (UniProt P36941)
inactive: erlotinib -0.05 | [8] 0.105 | [7] 0.26

MAGEA6 (UniProt P43360)
inactive: erlotinib 0.07 | [1] 0.023 | [8] 0.175 | [2] 0.101 | [4] 0.053 | [5] -0.143 | [6] -0.089

(list continues)

MAPK15 (UniProt Q8TD08)
inactive: erlotinib 0.04 | [8] 0.225 | [3] -0.054 | IRAK-1-4 Inhibitor I 0.069

MAPT isoform 7 (UniProt P10636)
inactive: [1] 0.025 | [2] 0.059 | [4] -0.046

MAP3K3 isoform 2 (UniProt Q99759)
inactive: erlotinib -0.121 | [1] -0.088 | [8] 0.083 | [2] 0.177 | [3] 0.009 | [4] 0.282 | [5] -0.055 | [6] -0.082 | IRAK-1-4 Inhibitor I -0.131

MAGEF1 (UniProt Q9HAY2)
inactive: erlotinib 0.231 | [8] 0.201 | [3] 0.111 | IRAK-1-4 Inhibitor I -0.142

MAST3 (UniProt O60307)
inactive: erlotinib -0.041 | [8] 0.023 | [3] 0.028 | [5] -0.002 | [6] 0.005 | IRAK-1-4 Inhibitor I 0.02

MAP7 (UniProt Q14244)
inactive: erlotinib -0.062 | [1] -0.139 | [8] 0.078 | [2] -0.058 | [7] -0.043 | [4] -0.067 | [5] -0.026 | [6] 0.01

LY6E (UniProt Q16553)
inactive: [1] -0.095 | [2] 0.049 | [7] -0.033 | [4] -0.27 | [5] -0.02 | [6] 0.025

MAFG (UniProt O15525)
inactive: erlotinib -0.029 | [8] 0.04 | [7] -0.025 | [3] -0.003 | [5] -0.046 | [6] 0.053 | IRAK-1-4 Inhibitor I 0.031

MAPK11 (UniProt Q15759)
inactive: erlotinib -0.016 | [8] -0.037 | [7] -0.093 | [3] 0.228 | IRAK-1-4 Inhibitor I 0.021

MAGEA4 (UniProt P43358)
inactive: erlotinib 0.004 | [1] 0.028 | [8] 0.015 | [2] 0.095 | [3] -0.015 | [4] -0.078 | [5] -0.024 | [6] -0.049 | IRAK-1-4 Inhibitor I 0.024

MAP4K3 (UniProt Q8IVH8)
inactive: [7] -0.024 | [3] -0.137 | IRAK-1-4 Inhibitor I -0.195

MAFF (UniProt Q9ULX9)
inactive: erlotinib 0.011 | [1] -0.512 | [8] -0.093 | [2] 0.064 | [4] -0.024 | [5] 0.065 | [6] 0.022

MAP3K2 (UniProt Q9Y2U5)
inactive: erlotinib -0.022 | [1] 0.009 | [8] 0.032 | [2] 0.037 | [7] 0.06 | [4] -0.157 | [5] -0.303 | [6] -0.08

MAGEA3 (UniProt P43357)
inactive: [1] 0.108 | [2] 0.01 | [4] -0.078 | [5] 0.048 | [6] 0.042

MANBAL (UniProt Q9NQG1)
inactive: erlotinib 0.021 | [8] -0.028 | [7] 0.05 | [3] 0.042 | [5] -0.049 | [6] 0.01 | IRAK-1-4 Inhibitor I -0.009

LTBP4 (UniProt Q8N2S1)
inactive: erlotinib 0.06 | [8] 0.004 | [7] 0.267 | [3] 0.052 | [5] -0.051 | [6] -0.051 | IRAK-1-4 Inhibitor I 0.011

MAPK7 (UniProt Q13164)
inactive: erlotinib -0.1 | [8] 0.012 | [5] -0.057 | [6] 0.032

MAP3K6 (UniProt O95382)
inactive: [1] 0.05 | [2] 0.183 | [4] 0.487 | [5] 0.033 | [6] -0.008

LYRM1 (UniProt O43325)
inactive: erlotinib -0.299 | [1] -0.087 | [8] -0.178 | [2] 0.01 | [4] 0.088

LTBP1 isoform 4 (UniProt Q14766)
inactive: erlotinib -0.102 | [8] 0.098 | [7] 0.013 | [5] 0.322 | [6] -0.005

MAP3K8 (UniProt P41279)
inactive: [7] -0.155

MAP4K4 isoform 6 (UniProt O95819)
inactive: erlotinib 0.006 | [8] 0.156 | [7] 0.094 | [3] -0.061 | [5] 0.003 | [6] -0.078 | IRAK-1-4 Inhibitor I -0.049

MAGEA12 (UniProt P43365)
inactive: [1] 0.004 | [2] -0.193 | [4] -0.113 | [5] -0.05 | [6] -0.127

MARVELD1 (UniProt Q9BSK0)
inactive: erlotinib 0 | [1] -0.318 | [8] 0.025 | [2] 0.145 | [7] 0.029 | [4] -0.122

MARCHF6 (UniProt O60337)
inactive: erlotinib 0.004 | [1] 0.008 | [8] 0.101 | [2] 0.042 | [7] -0.202 | [4] -0.133 | [5] 0.047 | [6] -0.023

MAN2B2 (UniProt Q9Y2E5)
inactive: erlotinib 0.006 | [8] -0.019 | [7] -0.003 | [3] -0.035 | [5] -0.01 | [6] 0.045 | IRAK-1-4 Inhibitor I 0.009
